From the supplement of paper PMC7858590
Where “and” joins values, the source holds several entries; their conditions need not be identical. Equal entries are not always repeated. ± gives the standard deviation of the averaged measurements. Whole data set: some 3,800 compounds, median “cell shape (eccentricity) Z-score vs DMSO control” near 1.1, cut for the lowest 2% near -4.7. The list shows a part of the results.

tested on: human monocyte-derived macrophages (M0); assay: cell shape (eccentricity) Z-score vs DMSO control; higher = more elongated, M2-like morphology; conditions: 20 µM; 24 h; macrophage state: M0 (M-CSF)

Row | Structure (SMILES) | cell shape (Z-score)
1 | C[C@H](CCC(=O)O)[C@H]1CCC2C3C(=O)CC4CC(=O)CC[C@]4(C)C3CC(=O)[C@@]21C (stereo partly drawn) | 1.81
2 | CC1CCC2(NC1)OC1CC3C4CC=C5CC(O[C@@H]6O[C@H](CO)[C@@H](O[C@@H]7O[C@@H](C)[C@H](O)[C@@H](O)[C@H]7O)[C@H](O)[C@H]6O)CCC5(C)C4CCC3(C)C1C2C (stereo partly drawn) | 0.328
3 | CCc1cc2c(c(CC)n1)CCC(=O)N2Cc1ccc(-c2ccccc2-c2nnn[nH]2)cc1 | 2.77
4 | CCCCC(=O)O[C@H]1CCC2C3CCc4cc(O)ccc4C3CC[C@@]21C (stereo partly drawn) | 1.71
5 | CNCCCC12CCC(c3ccccc31)c1ccccc12 | 0.766
6 | COc1ccc2c(c1)CCC1C2CC[C@@]2(C)C1CC[C@@H]2O (stereo partly drawn) | 3.09
7 | COC(=O)c1c(C)cc2c(c(C)c1=O)OC1(C2)C(C)CCC2C(C)(C)OC(=O)C=CC21C (stereo not drawn) | 1.64
8 | c1ccc(COCCCc2cnc[nH]2)cc1 | 2.2
9 | COC(=O)c1cccc(OC(C)C(=O)O)c1 (stereo not drawn) | 0.817 ± 1.2
10 | O=C(O)CC[C@H]1CC[C@@](c2cc(F)ccc2F)(S(=O)(=O)c2ccc(Cl)cc2)CC1 | -4.59
11 | O=C(O)c1ccc(NC2OCC(O)C(O)C2O)cc1 (stereo not drawn) | 0.577
12 | C=C1CCC2[C@](C)(CCC[C@]2(C)C(=O)O)[C@H]1CC/C(C)=C/C(=O)OC (stereo partly drawn) | -0.908
13 | C[C@H]1CC(=O)C2=C(C1)C(O)C(O)[C@@]1(O)[C@H]2C(=O)c2cccc(O)c2[C@@H]1O (stereo partly drawn) | 0.941
14 | COc1cc(/C=C/CO)ccc1O[C@@H]1O[C@H](CO)[C@@H](O)[C@H](O)[C@H]1O | 1.08
15 | FC(F)(F)c1cc(CO[C@H]2CCCN[C@H]2c2ccccc2)cc(C(F)(F)F)c1 | 1.06
16 | Nc1nc(=O)[nH]cc1F | -0.631
17 | C=C1CCC[C@]2(C)CC[C@@](O)(C(=C)C(=O)O)C[C@@H]12 | -0.504
18 | COc1ccc(/C=C/C(=O)O[C@]2(C)CCC3C(C(=O)O)=CO[C@@H](O[C@@H]4O[C@H](CO)[C@@H](O)[C@H](O)[C@H]4O)[C@@H]32)cc1 (stereo partly drawn) | 1.31
19 | CC(C(=O)O)c1ccc(N2Cc3ccccc3C2=O)cc1 (stereo not drawn) | 1.06
20 | C[C@H]1CN([C@@H](C)CO)C(=O)c2cc(C#CC3(O)CCCC3)cnc2O[C@@H]1CN(C)C(=O)C1CCOCC1 | 0.441
21 | COc1cc2ncnc(Nc3ccc(O)c(Br)c3)c2cc1OC | 15.2
22 | C=C1CC[C@@]2(OC1)O[C@H]1CC3[C@@H]4CC=C5C[C@H](O[C@@H]6OC[C@H](O)[C@H](O)[C@H]6O[C@@H]6O[C@@H](C)[C@H](O)[C@@H](O)[C@H]6O)C[C@@H](O)[C@]5(C)C4CC[C@]3(C)[C@H]1[C@@H]2C (stereo partly drawn) | -1.19
23 | O=C(Cn1ccnc1[N+](=O)[O-])NCc1ccccc1 | 0.698
24 | C[C@H]1CN([C@@H](C)CO)S(=O)(=O)c2ccc(C#Cc3ccccc3F)cc2O[C@H]1CN(C)C(=O)Cc1ccncc1 | 2.68

Copied from above (2 entries):
Row | Structure (SMILES) | cell shape (Z-score)
8 | c1ccc(COCCCc2cnc[nH]2)cc1 | 2.2
9 | COC(=O)c1cccc(OC(C)C(=O)O)c1 (stereo not drawn) | 0.817 ± 1.2

Following part:

Row | Structure (SMILES) | cell shape (Z-score)
25 | CC(=O)Nc1nc(C)c(S(=O)(=O)Nc2ccc(C(O)(C(F)(F)F)C(F)(F)F)cc2)s1 | 0.463
26 | CC(=O)OC1C(=O)C2(C)C(O)CC3OCC3(OC(C)=O)C2C(OC(=O)c2ccccc2)C2(O)CC(OC(=O)C(O)C(NC(=O)c3ccccc3)c3ccccc3)C(C)=C1C2(C)C (stereo not drawn) | -3.69
27 | CCCCCS(=O)(=O)CCCCCCCCCCn1c(-c2ccc(O)cc2)c(C)c2cc(O)ccc21 | -0.945
28 | CNC[C@@H]1Oc2ccc(NC(=O)CCN3CCOCC3)cc2CC(=O)N([C@H](C)CO)C[C@@H]1C | 4.24
29 | O=C1CC2(CCCC2)CC(=O)N1CCCCNCC1COc2ccccc2O1 (stereo not drawn) | 1.11
30 | CN1CC(=O)N=C1NC(=O)Nc1cccc(Cl)c1 | 2.53
31 | C[C@@H]1CN([C@H](C)CO)C(=O)Cc2cc(NC(=O)Nc3ccc(F)cc3)ccc2O[C@@H]1CN(C)Cc1ccc(C(=O)O)cc1 | 2.38
32 | CCCC(=O)Nc1ccc(OCC(O)CNC(C)C)c(C(C)=O)c1 (stereo not drawn) | 1.65
33 | CC(=O)O[C@H]1C[C@@H](OC(C)=O)C(C)(C)C2C[C@@H](O)[C@]3(C)C(CC[C@@]4(C)[C@H](c5ccoc5)OC(=O)C5OC543)[C@]21C (stereo partly drawn) | -2.16
34 | CN1CCN(CCCN2c3ccccc3Sc3ccc(C(F)(F)F)cc32)CC1 | -2.15 and -2.77
35 | CC1CC[C@@]2(OC1)O[C@H]1CC3C4CC=C5C[C@@H](O[C@@H]6O[C@H](CO)[C@@H](O)[C@H](O)[C@H]6O)CC[C@]5(C)C4CC[C@]3(C)[C@@]1(O)[C@@H]2C (stereo partly drawn) | -1.33
36 | CC(C)=CCC[C@](C)(O[C@@H]1O[C@H](CO[C@@H]2O[C@@H](CO)[C@H](O)[C@H]2O)[C@@H](O)[C@H](O)[C@H]1O)[C@H]1CC[C@]2(C)C1[C@H](O)CC1[C@@]3(C)CC[C@H](O[C@@H]4O[C@H](CO)[C@@H](O)[C@H](O)[C@H]4O[C@@H]4O[C@H](CO)[C@@H](O)[C@H](O)[C@H]4O)C(C)(C)C3CC[C@]12C (stereo partly drawn) | 0.625
37 | CC(C)(C)OC(=O)CN(Cc1ccc(Cl)cc1)Cc1ccc([N+](=O)[O-])s1 | 1.99
38 | Cc1c(O)cc(O)c2c1OC(c1ccccc1)CC2=O (stereo not drawn) | 1.66
39 | Cc1cccc(C)c1NC(=O)C[N+](C)(C)C | -4.98
40 | O=C(OCCN1CCCCC1)c1c[nH]c2ccccc12 | 1.25
41 | C=C(C(=O)O)[C@@H]1CC[C@@]2(C)CC[C@H](O)[C@@]2(C(C)=O)C1 | -4.55
42 | OC[C@@]1(O)CO[C@H](OC[C@H]2O[C@@H](OC(CCCCc3ccc(O)cc3)CCc3ccc(O)cc3)[C@H](O[C@H]3OC[C@](O)(CO)[C@H]3O)[C@@H](O)[C@@H]2O)[C@@H]1O (stereo partly drawn) | 1.27
43 | CC1=CC(/C=C(\C)CCC(O)C(O)/C=C/C(=O)O)C2(O)C(=O)NC(CC(C)C)C2C1C (stereo not drawn) | 2.58
44 | C=C1C(=O)O[C@@H]2[C@H]1[C@H](O)C[C@]1(C)[C@@H](O)CC=C(C)[C@@H]21 | -0.912
45 | O=C(O)[C@H]1O[C@@H](Oc2c(-c3ccccc3)cc(O)c(-c3ccccc3)c2O)[C@H](O)[C@@H](O)[C@@H]1O | -0.539
46 | CC(=O)O[C@H]1[C@H](Oc2ccccc2COC(=O)C2(O)C=CCCC2=O)O[C@H](CO)[C@@H](O)[C@@H]1O (stereo partly drawn) | 1.32
47 | CC(C)(C)NC(=O)[C@H]1CCC2C3CC[C@H]4NC(=O)C=C[C@]4(C)C3CC[C@@]21C (stereo partly drawn) | 0.645
48 | COc1cc(C2OCC3C(c4ccc5c(c4)OCO5)OC(=O)C23)ccc1O (stereo not drawn) | 2.77
